Measured values as given in paper PMC2719869, “A Mouse Model for the Metabolic Effects of the Human Fat Mass and Obesity Associated FTO Gene” (PLoS Genetics, 2009).
No constants are given. Whether binding was seen depends on the method and setting.

Target: C-terminal domain of murine FTO (residues 329-502) with I367A (mouse) (UniProt Q8BGW1)
Experiment: SEC; analytical gel filtration; 250 ug protein on Tricorn 10/300 GL, Superdex 75 (CmFTO, CmFTO I367A) or Superdex 200 (mFTO, mFTO I367A); 50 mM NaCl, 1 mM DTT, 50 mM Tris pH 7.5; calibrated with protein standards; monomer to dimer; both purified

B1: C-terminal domain of murine FTO (residues 329-502) with I367A (domain or fragment, UniProt Q8BGW1 329-502)
chain: DYILERCQLALQNVLNDSDDGDVSLKSFDPAVLKQGEEAHNEVEFEWLRQFWFQGNRYKLCTDWWCEPMTHLEGLWKKMESMTNAVLREVKREGLPVEQRSEILSAILVPLTVRQNLRKEWHARCQSRVVRTLPVQQKPDCRPYWEKDDPSMPLPFDLTDVVSELRGQLLEARS
Question: How did the binding turn out when B1 was run?
Answer: The binding was “no binding (tested: 250 ug protein loaded)”.
